Measured values published in paper PMC9925730, “Controlled sequential in situ self-assembly and disassembly of a fluorogenic cisplatin prodrug for cancer theranostics” (Nature Communications, 2023).
Several values for one entry are separate records, joined by “and”; a condition that tells them apart may be missing. Equal values may be shown once. This continues a long series; more values of the same kind are listed elsewhere.

Protein sequences, listed by entry. Tags and fused reporters are not part of them. Residues count along the entry.
UniProt P19111, 20-533: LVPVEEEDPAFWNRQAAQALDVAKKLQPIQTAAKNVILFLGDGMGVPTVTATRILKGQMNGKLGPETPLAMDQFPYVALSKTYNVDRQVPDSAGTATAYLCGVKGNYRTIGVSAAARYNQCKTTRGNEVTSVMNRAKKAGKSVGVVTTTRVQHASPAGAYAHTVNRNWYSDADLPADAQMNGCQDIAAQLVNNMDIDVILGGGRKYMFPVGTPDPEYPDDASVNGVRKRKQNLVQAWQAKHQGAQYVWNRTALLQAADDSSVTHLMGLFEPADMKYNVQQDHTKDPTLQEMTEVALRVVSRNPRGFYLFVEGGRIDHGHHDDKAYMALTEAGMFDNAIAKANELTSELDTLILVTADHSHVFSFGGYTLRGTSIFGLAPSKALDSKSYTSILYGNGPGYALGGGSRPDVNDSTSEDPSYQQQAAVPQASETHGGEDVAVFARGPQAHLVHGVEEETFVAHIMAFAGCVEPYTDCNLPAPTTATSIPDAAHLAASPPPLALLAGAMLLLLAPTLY

Target: T1, ALP (Bos taurus, UniProt P19111)
T1 construct: Alkaline phosphatase from bovine; purchased Sigma-Aldrich; host or cells: bovine intestinal mucosa (tissue-derived)
Experiment: Dephosphorylated efficacy of P-CyPt towards varying concentrations of ALP (NIR fluorescence)
Type: biochemical

CC1(C)C(/C=C/C2=C3Oc4cc(OP(=O)(O)O)c(Cl)cc4C=C3CCC2)=[N+](CCCNC(=O)[C@@H](Cc2ccccc2)NC(=O)[C@@H](Cc2ccccc2)NC(=O)CCC(=O)[O][Pt]([NH2])([NH2])([OH])([Cl])[Cl])c2ccccc21 [P-CyPt]
Normalized FL intensity (ALP 5 U/L, 0 min, mean of 3 samples): 0.9797
Normalized FL intensity (ALP 5 U/L, 0 min, single samples): 0.9826 and 0.9217 and 1.035
Normalized FL intensity (ALP 5 U/L, 2 min, mean of 3 samples): 1.08
Normalized FL intensity (ALP 5 U/L, 2 min, single samples): 1.07 and 1.1
Normalized FL intensity (ALP 5 U/L, 4 min, mean of 3 samples): 1.184
Normalized FL intensity (ALP 5 U/L, 4 min, single samples): 1.152 and 1.183 and 1.217
Normalized FL intensity (ALP 5 U/L, 6 min, mean of 3 samples): 1.386
Normalized FL intensity (ALP 5 U/L, 6 min, single samples): 1.387 and 1.352 and 1.417
Normalized FL intensity (ALP 5 U/L, 8 min, mean of 3 samples): 1.587
Normalized FL intensity (ALP 5 U/L, 8 min, single samples): 1.483 and 1.6 and 1.678
Normalized FL intensity (ALP 5 U/L, 16 min, mean of 3 samples): 1.958
Normalized FL intensity (ALP 5 U/L, 16 min, single samples): 1.9087 and 1.952 and 2.013
Normalized FL intensity (ALP 5 U/L, 18 min, mean of 3 samples): 2.062
Normalized FL intensity (ALP 5 U/L, 18 min, single samples): 1.9913 and 2.074 and 2.122
Normalized FL intensity (ALP 5 U/L, 20 min, mean of 3 samples): 2.162
Normalized FL intensity (ALP 5 U/L, 20 min, single samples): 2.07 and 2.157 and 2.261
Normalized FL intensity (ALP 5 U/L, 22 min, mean of 3 samples): 2.455
Normalized FL intensity (ALP 5 U/L, 22 min, single samples): 2.383 and 2.422 and 2.561
Normalized FL intensity (ALP 5 U/L, 24 min, mean of 3 samples): 2.539
Normalized FL intensity (ALP 5 U/L, 24 min, single samples): 2.474 and 2.5 and 2.643
Normalized FL intensity (ALP 5 U/L, 26 min, mean of 3 samples): 2.628
Normalized FL intensity (ALP 5 U/L, 26 min, single samples): 2.57 and 2.626 and 2.687
Normalized FL intensity (ALP 5 U/L, 28 min, mean of 3 samples): 2.6942
Normalized FL intensity (ALP 5 U/L, 28 min, single samples): 2.678 and 2.687 and 2.717
Normalized FL intensity (ALP 5 U/L, 30 min, mean of 3 samples): 2.768
Normalized FL intensity (ALP 5 U/L, 30 min, single samples): 2.722 and 2.77E+00 and 2.81E+00
Normalized FL intensity (ALP 10 U/L, 0 min, mean of 3 samples): 0.929
Normalized FL intensity (ALP 10 U/L, 0 min, single samples): 0.8957 and 0.9087 and 0.9826
Normalized FL intensity (ALP 10 U/L, 2 min, mean of 3 samples): 1.1913
Normalized FL intensity (ALP 10 U/L, 2 min, single samples): 1.17 and 1.196 and 1.2087
Normalized FL intensity (ALP 10 U/L, 4 min, mean of 3 samples): 1.416
Normalized FL intensity (ALP 10 U/L, 4 min, single samples): 1.396 and 1.413 and 1.439
Normalized FL intensity (ALP 10 U/L, 6 min, mean of 3 samples): 1.662
Normalized FL intensity (ALP 10 U/L, 6 min, single samples): 1.63 and 1.652 and 1.704
Normalized FL intensity (ALP 10 U/L, 8 min, mean of 3 samples): 1.913
Normalized FL intensity (ALP 10 U/L, 8 min, single samples): 1.822 and 1.922 and 1.996
Normalized FL intensity (ALP 10 U/L, 18 min, mean of 3 samples): 3.077
Normalized FL intensity (ALP 10 U/L, 18 min, single samples): 2.978 and 3.126
Normalized FL intensity (ALP 10 U/L, 20 min, mean of 3 samples): 3.322
Normalized FL intensity (ALP 10 U/L, 20 min, single samples): 3.152 and 3.426 and 3.387
Normalized FL intensity (ALP 10 U/L, 22 min, mean of 3 samples): 3.57
Normalized FL intensity (ALP 10 U/L, 22 min, single samples): 3.417 and 3.657 and 3.635
Normalized FL intensity (ALP 10 U/L, 24 min, mean of 3 samples): 3.865
Normalized FL intensity (ALP 10 U/L, 24 min, single samples): 3.726 and 3.904 and 3.965
Normalized FL intensity (ALP 10 U/L, 26 min, mean of 3 samples): 4.146
Normalized FL intensity (ALP 10 U/L, 26 min, single samples): 4.065 and 4.13 and 4.243
Normalized FL intensity (ALP 10 U/L, 28 min, mean of 3 samples): 4.4
Normalized FL intensity (ALP 10 U/L, 28 min, single samples): 4.326 and 4.3913 and 4.483
Normalized FL intensity (ALP 10 U/L, 30 min, mean of 3 samples): 4.643
Normalized FL intensity (ALP 10 U/L, 30 min, single samples): 4.543 and 4.648 and 4.739
Normalized FL intensity (ALP 20 U/L, 0 min, mean of 3 samples): 0.9536
Normalized FL intensity (ALP 20 U/L, 0 min, single samples): 0.9043 and 0.9304 and 1.026
Normalized FL intensity (ALP 20 U/L, 2 min, mean of 3 samples): 1.245
Normalized FL intensity (ALP 20 U/L, 2 min, single samples): 1.222 and 1.235 and 1.278
Normalized FL intensity (ALP 20 U/L, 4 min, mean of 3 samples): 1.522
Normalized FL intensity (ALP 20 U/L, 4 min, single samples): 1.443 and 1.5087 and 1.613
Normalized FL intensity (ALP 20 U/L, 6 min, mean of 3 samples): 1.871
Normalized FL intensity (ALP 20 U/L, 6 min, single samples): 1.783 and 1.835 and 1.996
Normalized FL intensity (ALP 20 U/L, 8 min, mean of 3 samples): 2.238
Normalized FL intensity (ALP 20 U/L, 8 min, single samples): 2.139 and 2.226 and 2.348
Normalized FL intensity (ALP 20 U/L, 18 min, mean of 3 samples): 4.193
Normalized FL intensity (ALP 20 U/L, 18 min, single samples): 4.117 and 4.126 and 4.335
Normalized FL intensity (ALP 20 U/L, 20 min, mean of 3 samples): 4.58
Normalized FL intensity (ALP 20 U/L, 20 min, single samples): 4.487 and 4.526 and 4.726
Normalized FL intensity (ALP 20 U/L, 22 min, mean of 3 samples): 4.971
Normalized FL intensity (ALP 20 U/L, 22 min, single samples): 4.87 and 4.917 and 5.126
Normalized FL intensity (ALP 20 U/L, 24 min, mean of 3 samples): 5.368
Normalized FL intensity (ALP 20 U/L, 24 min, single samples): 5.222 and 5.2913 and 5.5913
Normalized FL intensity (ALP 20 U/L, 26 min, mean of 3 samples): 5.7
Normalized FL intensity (ALP 20 U/L, 26 min, single samples): 5.613 and 5.722 and 5.765
Normalized FL intensity (ALP 20 U/L, 28 min, mean of 3 samples): 5.87
Normalized FL intensity (ALP 20 U/L, 28 min, single samples): 5.657 and 5.857 and 6.096
Normalized FL intensity (ALP 20 U/L, 30 min, mean of 3 samples): 6.1913
Normalized FL intensity (ALP 20 U/L, 30 min, single samples): 6.039 and 6.078 and 6.457
Normalized FL intensity (ALP 50 U/L, 0 min, mean of 3 samples): 0.942
Normalized FL intensity (ALP 50 U/L, 0 min, single samples): 0.9174 and 0.9652 and 0.9435
Normalized FL intensity (ALP 50 U/L, 2 min, mean of 3 samples): 1.416
Normalized FL intensity (ALP 50 U/L, 2 min, single samples): 1.422 and 1.426 and 1.4
Normalized FL intensity (ALP 50 U/L, 4 min, mean of 3 samples): 1.828
Normalized FL intensity (ALP 50 U/L, 4 min, single samples): 1.783 and 1.865 and 1.835
Normalized FL intensity (ALP 50 U/L, 6 min, mean of 3 samples): 2.274
Normalized FL intensity (ALP 50 U/L, 6 min, single samples): 2.204 and 2.2913 and 2.326
Normalized FL intensity (ALP 50 U/L, 8 min, mean of 3 samples): 2.743
Normalized FL intensity (ALP 50 U/L, 8 min, single samples): 2.687 and 2.713 and 2.83
Normalized FL intensity (ALP 50 U/L, 18 min, mean of 3 samples): 5.301
Normalized FL intensity (ALP 50 U/L, 18 min, single samples): 4.857 and 5.3087 and 5.739
Normalized FL intensity (ALP 50 U/L, 20 min, mean of 3 samples): 5.461
